# From PubChem BioAssay AID2685 (National Center for Advancing Translational Sciences (NCATS), 2010)
# The other results are listed elsewhere or left out. These are further read-outs of the screen, such as a control signal, another cell line or another target. No call is given for them. Most of these compounds were active or inconclusive in the main read-out, so they are no random draw. Potencies come from curve fits of mixed quality, noted in brackets.
# Assay: qHTS Assay for Lipid Storage Modulators in Drosophila S3 Cells;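 on cell number change: cells counted by Cell Tracker Red CMTPX staining in the red channel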
# Conditions: BODIPY lipid droplet fluorescence, 18-24 h; for cell number change: measured here: cell count max response, cells fed with added oleic acid
# In short: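 Laser-scanning cytometry quantifies lipid droplet accumulation (500–530 nm total intensity; droplet/cell object ratio) in oleic acid-fed (400 uM added) Drosophila S3 cells treated with a concentration series. 20 uM Triacsin C defined 100% inhibition.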
# [1] = measured here: lipid fluorescence (Fed channel) AC50, cells fed with added oleic acid
# [2] = measured here: cell number channel AC50, cells fed with added oleic acid
smiles,measurement,setting,value
CN(C)S(=O)(=O)c1ccc(Oc2ccccc2)cc1,cell number change,,22.2%
same,AC50,[1],"6.51 µM [falling, single point]"
CC(=O)Nc1ccc(NC(=O)CCC(=O)NCCO)cc1,cell number change,,-27%
same,AC50,[1],"29.1 µM [falling, single point]"
CN1CCN(c2ccccc2NC(=O)c2cccc([N+](=O)[O-])c2)CC1,cell number change,,122%
same,AC50,[1],"6.51 µM [falling, single point]"
Cc1cccc(C)c1-n1c(C)cc(/C=C2\C(=O)NN(c3ccccc3)C2=O)c1C,cell number change,,-34.9%
same,AC50,[2],"23.1 µM [falling, single point]"
same,AC50,[1],"23.1 µM [falling, single point]"
CS(=O)(=O)N(Cc1ccccc1)c1ccccc1C(=O)N1CCN(c2ccccc2)CC1,cell number change,,20.7%
same,AC50,[1],"0.651 µM [falling, full curve, poor fit]"
O=C(NC1CCCC1)c1cc2nc(-c3ccco3)cc(C(F)(F)F)n2n1,cell number change,,15.4%
Cc1ccccc1-c1nc(CS(=O)(=O)CC(=O)N2CCCCC2)c(C)o1,cell number change,,3.36%
CCOc1ccc(OCCn2c(S(=O)(=O)O)nc3c(N)ncnc32)cc1,cell number change,,26.9%
same,AC50,[1],"25.9 µM [falling, single point]"
Cc1nc(C(=O)Nc2ccccc2Cl)cc2c1[nH]c1ccccc12,cell number change,,18%
same,AC50,[1],"29.1 µM [falling, single point]"
CC1=C(C(=O)N2CCOCC2)C(c2ccccc2F)C2=C(CCCC2=O)N1 (stereo not given),cell number change,,-97.6%
same,AC50,[2],"18.4 µM [falling, single point]"
same,AC50,[1],"23.1 µM [falling, partial curve]"
COc1ccc(/C=c2\s/c(=C\C(=O)C(C)(C)C)[nH]c2=O)cc1O,cell number change,,-42.1%
same,AC50,[2],"25.9 µM [falling, single point]"
same,AC50,[1],"14.6 µM [falling, partial curve]"
O=C(/C=C/c1ccc(S(=O)(=O)N2CCOCC2)cc1)NC(=S)Nc1ccc(N2CCOCC2)cc1,cell number change,,16.2%
CC(C(=O)N1CCOCC1)n1cc([N+](=O)[O-])cn1 (stereo not given),cell number change,,13.7%
same,AC50,[2],"0.00461 µM [falling, full curve, poor fit]"
CC(NS(=O)(=O)c1ccc(F)cc1)C(c1cccs1)N1CCOCC1 (stereo not given),cell number change,,-35.8%
same,AC50,[2],"29.1 µM [falling, single point]"
COC(=O)c1ccc(Cn2nc(C)c(Br)c2C)cc1,cell number change,,9%
same,AC50,[2],"0.731 µM [rising, partial curve, poor fit]"
same,AC50,[1],"2.31 µM [rising, partial curve]"
COc1ccc(CCNC(=O)C(=O)NCc2ccccc2)cc1OC,cell number change,,9.61%
same,AC50,[1],"16.4 µM [rising, single point]"
COc1ccc(C(=O)NC(=S)N2CCCCC2c2cccnc2)cc1OC (stereo not given),cell number change,,6.47%
CCSc1nc(-c2ccccc2)cc(=O)[nH]1,cell number change,,14.1%
same,AC50,[2],"3.26 µM [falling, single point]"
same,AC50,[1],"1.64 µM [rising, partial curve, poor fit]"
Cc1cc(C)n2nc(SCC(=O)N3CCc4ccccc43)nc2n1,cell number change,,-35.2%
same,AC50,[2],"3.26 µM [rising, single point]"
same,AC50,[1],"25.9 µM [falling, partial curve, poor fit]"
O=C1c2cccc3c(O)ccc(c23)C(=O)N1Cc1ccco1,cell number change,,-94.2%
same,AC50,[2],"25.9 µM [falling, partial curve]"
same,AC50,[1],"25.9 µM [falling, partial curve, poor fit]"
CC(NCC(O)COCCC12CC3CC(CC(C3)C1)C2)c1ccccc1 (stereo not given),cell number change,,-29.9%
same,AC50,[2],"3.66 µM [falling, full curve, poor fit]"
same,AC50,[1],"2.31 µM [falling, partial curve]"
CCCc1oc(C(=O)O)cc1CN1CCOCC1,cell number change,,-86.5%
same,AC50,[2],"18.4 µM [falling, single point]"
same,AC50,[1],"29.1 µM [falling, single point]"
C=CCN1C(=O)C(CC(=O)Nc2ccccc2)SC1=Nc1ccc(S(N)(=O)=O)cc1 (stereo not given),cell number change,,0.942%
same,AC50,[1],"6.51 µM [falling, single point]"
O=C(NNS(=O)(=O)c1ccc(F)cc1F)C1Cc2c(ccc3ccccc23)O1 (stereo not given),cell number change,,-0.287%
CCCCN(c1ccccc1)S(=O)(=O)c1cccc(C(=O)O)c1,cell number change,,-108%
same,AC50,[2],"16.4 µM [falling, partial curve]"
same,AC50,[1],"29.1 µM [falling, single point]"
CC1CCN(C(=O)CCN2C(=O)C3C4C=CC(C4)C3C2=O)CC1 (stereo not given),cell number change,,32.2%
CN1/C(=C/C(=O)c2ccc(Cl)cc2)Sc2cc3c(cc21)OCO3,cell number change,,-1.35%
same,AC50,[1],"0.116 µM [rising, full curve, poor fit]"
Cc1sc(NC(=O)CSc2nnc(N)s2)c(C#N)c1C,cell number change,,5.86%
CC(C)[C@H](NC(=O)C1CC(=O)N(c2ccc3c(c2)OCCO3)C1)C(=O)NC1CCCC1 (stereo not given in full),cell number change,,3.44%
COc1ccc(C2C(C(=O)c3cccs3)=C(O)C(=O)N2c2nncs2)cc1 (stereo not given),cell number change,,-14.3%
same,AC50,[2],"0.13 µM [falling, full curve, poor fit]"
same,AC50,[1],"3.26 µM [falling, single point]"
COc1ccc(OCCN2C(=O)NC(C)(c3ccc(C)cc3)C2=O)cc1 (stereo not given),AC50,[1],"1.84 µM [falling, full curve, poor fit]"
CCOC(=O)c1cc(-c2ccc(C)cc2)n(CCC(=O)NCCCOC)c1C,cell number change,,48.3%
same,AC50,[2],"29.1 µM [rising, single point]"
CCCCN(CC)CCCNC(=O)c1cn(C)c(=O)c2c1c1ccccc1n2C,cell number change,,25%
same,AC50,[1],"32.6 µM [rising, single point]"
O=C1CC(c2ccc(Cl)c([N+](=O)[O-])c2)c2ccc3ccccc3c2N1 (stereo not given),AC50,[2],"3.26 µM [rising, single point]"
same,AC50,[1],"2.59 µM [rising, partial curve]"
CC(C)(C)OC(=O)NC(CCCCNC=O)C(=O)O (stereo not given),cell number change,,-166%
same,AC50,[2],"29.1 µM [falling, single point]"
same,AC50,[1],"29.1 µM [falling, single point]"
Cc1ccc(C(=O)NCc2ccncc2)cc1S(=O)(=O)N1CCOCC1,cell number change,,6.44%
same,AC50,[1],"29.1 µM [rising, single point]"

# Exported bar-delimited: entries from further up.
smiles | measurement | setting | value
CCCc1oc(C(=O)O)cc1CN1CCOCC1 | AC50 | [1] | 29.1 µM [falling, single point]
C=CCN1C(=O)C(CC(=O)Nc2ccccc2)SC1=Nc1ccc(S(N)(=O)=O)cc1 (stereo not given) | cell number change |  | 0.942%
same | AC50 | [1] | 6.51 µM [falling, single point]
O=C(NNS(=O)(=O)c1ccc(F)cc1F)C1Cc2c(ccc3ccccc23)O1 (stereo not given) | cell number change |  | -0.287%
